Results deposited as PubChem BioAssay AID602196 (INSERM, 2012).

- Test: 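Genes whose knock-down alters cisplatin killing of lung cancer cells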
- System: human A549 lung cancer cells
- Knock-down reagent: siRNA pair against human genes
- Timing: 48 h transfection before cisplatin; time from cisplatin to read-out not stated
- Treatment: cisplatin at a dose killing half of control-siRNA cells; exact dose and duration not given
- Read-out: 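Shift in cisplatin death relative to control siRNA, from -50 (all cells die) to +50 (no cells die); siRNAs harmful on their own scored 0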
- Direction: two-siRNA summed score (-2 to +2): higher = both siRNAs protect from cisplatin killing; -2 means both sensitise
- Hit rule: 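siRNAs harmful alone (LDH or WST-1) get 0; others get +1 for less and -1 for more cisplatin killing; genes are active when the two siRNAs give the same sign, summing to ±2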
- Calls: active = both siRNAs shift cisplatin killing the same way; inactive = no consistent shift, or siRNA harmful alone
The whole screen tested about 23,000 reagents; below is a random part of them. In the full data, 455 (2%) are marked active. 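Active includes both protection and sensitisation; some change values fall well beyond the stated -50 to +50 range.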 Reagents against one gene are numbered here. Not all columns of the deposit are shown. Not stated in the record: the amount of reagent.

two-siRNA summed score (-2 to +2), by gene and reagent
EMC6: #1 0 inactive; #2 1 inactive
FAM3C: #1 1 inactive
ZNF644: #1 0 inactive
ENDOV: #1 0 inactive
MAGEC3: #1 0 inactive
UBA6: #1 -1 inactive
HEY2: #1 0 inactive
KXD1: #1 0 inactive
RGS17: #1 0 inactive
ZBED8L: #1 -1 inactive
HOXB5: #1 0 inactive
SLC2A11: #1 -1 inactive
BMS1: #1 1 inactive
GOLPH3: #1 0 inactive
SLC35G1: #1 0 inactive
AGAP4: #1 0 inactive
LOC164714: #1 0 inactive
CELF3: #1 0 inactive
AVL9: #1 1 inactive
ELOA2: #1 0 inactive
SPRR2A: #1 0 inactive
CCR10: #1 -1 inactive
TREML2: #1 0 inactive
CERKL: #1 0 inactive
CENPT: #1 0 inactive
LOC200624: #1 1 inactive
SLC39A11: #1 1 inactive
LOC442424: #1 0 inactive
WLS: #1 1 inactive
FGD5: #1 0 inactive
CHL1: #1 0 inactive
CLTA: #1 0 inactive
ADTRP: #1 0 inactive
RAB11B: #1 -1 inactive
TAS2R1: #1 0 inactive
FAM47A: #1 -1 inactive
MFSD1: #1 0 inactive
AVIL: #1 0 inactive

A stretch of the results above:
two-siRNA summed score (-2 to +2), by gene and reagent
SLC39A11: #1 1 inactive
LOC442424: #1 0 inactive
WLS: #1 1 inactive
FGD5: #1 0 inactive
